Patent EP4818209A2 (Primatope Therapeutics Inc., dated 2026)
No constants are given. Whether binding was seen depends on the method and setting. Some results given as binding are weak or reduced against the parent protein; the word gives no strength.

Sequences of proteins named here, by UniProt entry; tags and fusion partners are left off. A change or cut given only in a name is not applied to a line headed by its entry. A line that says so, or that is headed by a name, gives the form on record, which may keep a tag or linker.
rhesus CD40 on blood B cells (CD20+ cells of rhesus PBMCs) (F6SNI1, form named): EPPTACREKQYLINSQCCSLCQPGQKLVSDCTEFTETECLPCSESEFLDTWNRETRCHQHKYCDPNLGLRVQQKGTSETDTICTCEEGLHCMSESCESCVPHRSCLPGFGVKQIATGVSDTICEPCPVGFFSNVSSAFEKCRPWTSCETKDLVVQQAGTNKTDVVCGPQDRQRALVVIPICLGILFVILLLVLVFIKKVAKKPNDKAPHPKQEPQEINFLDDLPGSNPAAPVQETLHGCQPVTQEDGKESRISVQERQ
UniProt P25942: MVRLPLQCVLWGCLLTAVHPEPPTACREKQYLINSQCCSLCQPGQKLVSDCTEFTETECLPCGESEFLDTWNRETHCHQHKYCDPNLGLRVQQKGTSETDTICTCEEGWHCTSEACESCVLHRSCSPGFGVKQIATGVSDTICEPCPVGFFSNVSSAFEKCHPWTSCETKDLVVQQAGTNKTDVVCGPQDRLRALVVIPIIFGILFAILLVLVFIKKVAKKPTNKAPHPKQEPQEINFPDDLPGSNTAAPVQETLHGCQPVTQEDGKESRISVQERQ

Legend:
[1] = biological target: rhesus CD40 on blood B cells (CD20+ cells of rhesus PBMCs) (rhesus macaque) (UniProt F6SNI1); test: flow cytometry on PBMCs, fluorochrome-conjugated 2C10 (Figure 2a)
recombinant human CD40 [2] = biological target: T1, recombinant human CD40 (human, UniProt P25942 21-120, limits assumed); test: ELISA, CD40 adsorbed to plates, goat anti-mouse IgG-HRP (Figure 2b)
T1 construct: biotinylated there; also called hCD40; purified CD40

[3] = biological target: recombinant rhesus CD40 (rhesus macaque (M. mulatta)); test: as above
recombinant human CD40 [4] = biological target: T1, recombinant human CD40; test: ELISA, recombinant CD40 adsorbed to plates, goat anti-mouse IgG-HRP
[5] = biological target: recombinant rhesus CD40 (rhesus macaque (M. mulatta)); test: as above
[6] = biological target: rhesus CD40 on blood B cells (CD20+ cells of rhesus PBMCs) (rhesus macaque) (UniProt F6SNI1); test: flow cytometry on PBMCs with fluorochrome-conjugated 2C10 and an anti-CD20 antibody
[7] = biological target: human CD40 fusion protein (printed 'CD40-NMP fusion') used on the BIACore 3000 (human) (UniProt P25942); test: BIACore 3000, h2C10 immobilized on a CM5 chip by amine coupling, CD40 fusion as analyte (Figure 16)
[8] = biological target: rhesus CD40 fusion protein (printed 'CD40-NMP fusion') used on the BIACore 3000 (rhesus); test: as above
[9] = biological target: rhesus CD40 on blood B cells (CD20+ cells of rhesus PBMCs) (rhesus macaque) (UniProt F6SNI1); test: receptor occupancy by flow cytometry on blood B cells of treated rhesus monkeys
[10] = biological target: rhesus CD40 on blood B cells (CD20+ cells of rhesus PBMCs) (rhesus macaque) (UniProt F6SNI1); test: receptor occupancy by flow cytometry on blood B cells of treated rhesus monkeys (Figure 19)

Measured: binding

B1: 2C10 (murine anti-CD40 antibody) (antibody, V domains shown)
VH: QVQLQQSGAELAKPGASVKMSCKASGYTFTNYWMHWVKQRPGQGLEWIGYINPSNDYTKYNQKFKDKATLTADKSSNTAYMQLGSLTSEDSAVYYCARQGFPYWGQGTLVTVSA
VL: QIVLTQSPAIMSASPGEKVTMTCSASSSVSYMHWYHQRSGTSPKRWIYDTSKLASGVPARFSGSGSGTSYSLTISSMEAEDAATYYCHQLSSDPFTFGSGTKLEIK
binds: [1] | recombinant human CD40 [2] | [3] | recombinant human CD40 [4] | [5] | [6]

B2: humanized 2C10 antibody, Clone 2.189.2 (2C10_h3 + 2C10_l2) (antibody, V domains shown)
VH: QVQLVQSGAEVKKPGASVKVSCKASGYTFTNYWMHWVRQAPGQRLEWIGYINPSNDYTKYNQKFKDRATLTADKSANTAYMELSSLRSEDTAVYYCARQGFPYWGQGTLVTVSS
VL: EIVLTQSPATLSLSPGERATLSCSASSSVSYMHWYQQKPGQAPRRWIYDTSKLASGVPARFSGSGSGTDYTLTISSLEPEDFAVYYCHQLSSDPFTFGGGTKVEIK
notes: also called h2C10; mAb 2.189.2
binds: [7] | [8]

B3: humanized 2C10 (h2C10) in the stabilized IgG4 format (antibody, V domains shown)
VH: B2 VH
VL: EIVLTQSPATLSLSPGERATLSCSASSSVSYMHWYQQKPGQAPRRWIYDTSKLASGVPARFSGSGSGTDYTLTISSLEPEDFAVYYCHQLSSDPFTFGGGTKVEIKR
binds: [9] | [10]
